Assay results: PubChem BioAssay AID504834 (National Center for Advancing Translational Sciences (NCATS), 2011)
In all, about 320,000 compounds went through this assay and about 22,000 (6.9%) were called active. This list was built around the results that the source calls inconclusive (neither active nor inactive); the mix of calls is not that of the screen. Calls follow the shape of the dose curve; as a rule, active = well fitted inhibition curve with a large enough effect; inconclusive = small, poorly fitted or top-dose-only effect, or another doubt; inactive = no such curve, though single readings can be large or run the other way. Potencies of inconclusive entries are doubtful fits and often do not repeat.
% is scaled to controls: 0 for no effect and ±100 for the full control effect; potency is read from the fitted curve at half-maximal effect.

Experiment: Primary qHTS for delayed death inhibitors of the malarial parasite plastid, 96 hour incubation
Details: P. falciparum luciferase reporter growth; series mostly up to 28.7 µM
In short: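 Plates of compound plus infected erythrocytes (2% hematocrit, 0.05% parasitemia final) incubate 96 hours, 37 C, 5% CO2. Detection reagent added; reduced luminescence from the parasites' luciferase reporter flags inhibition.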
With COc1ccc(-n2nc3cc(C)c(N)c(Br)c3n2)cc1 the Potency was inconclusive: 18.5 µM [inhibitor, single point].
In the case of CC(NC(=O)CN(C)Cc1nc2ccccc2c(=O)[nH]1)c1ccccc1 (stereo unspecified), the Potency is reported as inconclusive: 10.4 µM [inhibitor, partial curve, poor fit].
For CCCCC1=CC2=CC(=O)C(C)(OC(=O)CC)C(=O)C2=CN1Cc1ccc(OC)cc1 (stereo unspecified), the Potency was inconclusive: 10.4 µM [inhibitor, single point].
In the case of CCc1ccccc1NC(=S)N(CCCN(C)C)Cc1cc2cc3c(cc2[nH]c1=O)OCO3, the Potency is reported as inconclusive: 10.4 µM [inhibitor, single point].
In the case of CC(C)N(C)C(=O)CCc1nnc(CCc2c[nH]c3ccccc23)o1, the Potency is reported as inconclusive: 0.37 µM [inhibitor, partial curve, poor fit].
With CC(CNC(=O)CCC(=O)N1CCOc2ccc(Cl)cc21)c1ccccc1 (stereo unspecified) the Potency was active: 13.1 µM.
With CN1CCOC(c2ccccc2)c2ccccc2C1 (stereo unspecified) the Potency was active: 10.4 µM.
For COc1ccccc1C/C(N)=N/OC(=O)c1ccc2c(c1)OCO2, the Potency was “inactive”.
For COc1ccc2nc3oc(C(=O)N4CC(C)CC(C)C4)cc3cc2c1 (stereo unspecified), the Potency was inconclusive: 11.7 µM [inhibitor, partial curve, poor fit].
For CCc1cc2c3c(c1)C(C)CC(C)(C)N3C(=O)C2=O (stereo unspecified), the Potency was inconclusive: 18.5 µM [inhibitor, single point].
In the case of Cc1ccc(OCC(=O)N2N=C(c3ccc(Cl)cc3)CC2c2ccco2)c([N+](=O)[O-])n1 (stereo unspecified), the Potency is reported as inconclusive: 11.7 µM [inhibitor, partial curve, poor fit].
For COc1ccc(NP(=O)(Oc2cccc(C)c2)Oc2cccc(C)c2)cc1OC, the Potency was inconclusive: 13.1 µM [inhibitor, partial curve, poor fit].
For COc1ccc(CCNC(=O)C2CCCN(S(C)(=O)=O)C2)cc1 (stereo unspecified), the Potency was inconclusive: 11.7 µM [inhibitor, single point].
In the case of Cc1ccccc1N1CCN(Cc2ccc([N+](=O)[O-])o2)CC1, the Potency is reported as inconclusive: 18.5 µM [inhibitor, single point].
For COc1ccc(N(CC(O)Cn2c(C)nc3ccccc32)S(=O)(=O)c2ccccc2)cc1 (stereo unspecified), the Potency was inconclusive: 6.57 µM [inhibitor, partial curve, poor fit].
With N=C1c2ccccc2CN1NC(=O)COc1ccc(Cl)cc1 the Potency was inconclusive: 18.5 µM [inhibitor, single point].
In the case of CCc1[nH]nc2c1C(c1ccc(Br)s1)C(C#N)=C(N)O2 (stereo unspecified), the Potency is reported as “inactive”.
In the case of COC(=O)C1=C(N)Oc2cc(C)n(CC3CCCO3)c(=O)c2C1c1ccccc1OC (stereo unspecified), the Potency is reported as inconclusive: 0.0657 µM [inhibitor, full curve, poor fit].
For Cc1ccc(C2CC(=O)N3CN(c4ccc(Br)cc4)CSC3=C2C#N)o1 (stereo unspecified), the Potency was active: 4.65 µM.
With Cc1cc(NC(=O)CCC(=O)N(CC(=O)NC2CCCC2)Cc2ccc3c(c2)OCO3)no1 the Potency was inconclusive: 10.4 µM [inhibitor, single point].
In the case of Cn1nccc1C(=O)N1CCCC(C(=O)c2ccc(C(F)(F)F)cc2)C1 (stereo unspecified), the Potency is reported as active: 14.7 µM.
With Cc1oc(-c2ccc3c(c2)OCCO3)cc1C(=O)O the Potency was inconclusive: 3.29 µM [inhibitor, partial curve].
In the case of CN1CCc2c(OCC(=O)N3CCCc4ccccc43)cccc2C1=O, the Potency is reported as inconclusive: 9.28 µM [inhibitor, partial curve].
With NC(=O)CSc1oc(-c2ccco2)nc1S(=O)(=O)c1ccccc1 the Potency was inconclusive: 2.62 µM [inhibitor, single point].
For C[C@@H]1CC=C[C@H]2[C@H]1C(=O)N(Cc1ccccc1)[C@H]2c1ccc(C(F)(F)F)cc1, the Potency was inconclusive: 18.5 µM [inhibitor, single point].
With Fc1ccc(C(CCNCc2ccccn2)c2ccc(Cl)cc2)cc1 (stereo unspecified) the Potency was inconclusive: 11.7 µM [inhibitor, partial curve, poor fit].
For Cc1ccc(NS(=O)(=O)c2cccc(C(=O)N/N=C/c3c(C)nn(-c4ccccc4)c3N3CCCC3)c2)c(C)c1, the Potency was inconclusive: 11.7 µM [inhibitor, single point].
For O=C(NC(=S)NCCc1ccccc1)c1ccco1, the Potency was “inactive”.
For COc1ccc2[nH]c(=O)c(C(c3nnnn3C3CCCC3)N(C)C3CCCCC3)cc2c1 (stereo unspecified), the Potency was inconclusive: 18.5 µM [inhibitor, single point].
For O=C(O)C1CCc2sc3[nH]c(=S)n(-c4ccccc4)c(=O)c3c21 (stereo unspecified), the Potency was “inactive”.
With CCSC(SCC)[C@H](O)[C@@H](O)[C@H](O)[C@H](O)CO the Potency was “inactive”.
In the case of CCOC(=O)c1c(NC(=O)CNC2CCCc3ccccc32)sc(C(N)=O)c1C (stereo unspecified), the Potency is reported as inconclusive: 5.22 µM [inhibitor, partial curve].
In the case of CCOC(=O)c1c(NC(=O)CN(C)C2CCN(C)CC2)sc(C(=O)Nc2ccccc2)c1C, the Potency is reported as inconclusive: 10.4 µM [inhibitor, partial curve].
In the case of CC(C)(C)c1cccc(Cn2nnc3ccccc32)c1O, the Potency is reported as inconclusive: 18.5 µM [inhibitor, partial curve, poor fit].
For O=C1N(Cc2cccc(Cl)c2)C[C@@H]2C[C@@H](c3ccsc3)N3CCC[C@@]123, the Potency was “inactive”.
For CC(C)Cn1c(=O)c2c(nc3n2CCCN3CCc2ccccc2)n(C)c1=O, the activity change, negative = inhibition was inactive: 6.86% [at 5.75 µM].
In the case of Cc1cc(C)n(CC(O)COCc2ccccc2)n1 (stereo unspecified), the Potency is reported as active: 11.7 µM.
In the case of O=C(/C=C/c1ccc(F)cc1)Nc1ccc(S(=O)(=O)N2CCOCC2)cc1, the Potency is reported as inconclusive: 13.1 µM [inhibitor, partial curve, poor fit].
For Cc1noc(C(C)C)c1C(=O)Nc1ccc(-c2nnc3n2CCCCC3)cc1, the Potency was inconclusive: 6.57 µM [inhibitor, partial curve, poor fit].
In the case of O=C(NCc1ccccc1)NCc1cccs1, the Potency is reported as inconclusive: 10.4 µM [inhibitor, single point].
With Cc1cc(S(=O)(=O)N(Cc2ccccn2)Cc2ccco2)ccc1-n1cnnn1 the Potency was inconclusive: 9.28 µM [inhibitor, partial curve].
